Measurements as given in paper PMC7378253.
No constants are given. Whether binding was seen depends on the method and setting. In cells and extracts the contact can be indirect. Some binding calls cover weakened binding; strength is not graded here.

Protein sequences, listed by entry. Tags and fused reporters are not part of them.
UniProt Q8CFI0: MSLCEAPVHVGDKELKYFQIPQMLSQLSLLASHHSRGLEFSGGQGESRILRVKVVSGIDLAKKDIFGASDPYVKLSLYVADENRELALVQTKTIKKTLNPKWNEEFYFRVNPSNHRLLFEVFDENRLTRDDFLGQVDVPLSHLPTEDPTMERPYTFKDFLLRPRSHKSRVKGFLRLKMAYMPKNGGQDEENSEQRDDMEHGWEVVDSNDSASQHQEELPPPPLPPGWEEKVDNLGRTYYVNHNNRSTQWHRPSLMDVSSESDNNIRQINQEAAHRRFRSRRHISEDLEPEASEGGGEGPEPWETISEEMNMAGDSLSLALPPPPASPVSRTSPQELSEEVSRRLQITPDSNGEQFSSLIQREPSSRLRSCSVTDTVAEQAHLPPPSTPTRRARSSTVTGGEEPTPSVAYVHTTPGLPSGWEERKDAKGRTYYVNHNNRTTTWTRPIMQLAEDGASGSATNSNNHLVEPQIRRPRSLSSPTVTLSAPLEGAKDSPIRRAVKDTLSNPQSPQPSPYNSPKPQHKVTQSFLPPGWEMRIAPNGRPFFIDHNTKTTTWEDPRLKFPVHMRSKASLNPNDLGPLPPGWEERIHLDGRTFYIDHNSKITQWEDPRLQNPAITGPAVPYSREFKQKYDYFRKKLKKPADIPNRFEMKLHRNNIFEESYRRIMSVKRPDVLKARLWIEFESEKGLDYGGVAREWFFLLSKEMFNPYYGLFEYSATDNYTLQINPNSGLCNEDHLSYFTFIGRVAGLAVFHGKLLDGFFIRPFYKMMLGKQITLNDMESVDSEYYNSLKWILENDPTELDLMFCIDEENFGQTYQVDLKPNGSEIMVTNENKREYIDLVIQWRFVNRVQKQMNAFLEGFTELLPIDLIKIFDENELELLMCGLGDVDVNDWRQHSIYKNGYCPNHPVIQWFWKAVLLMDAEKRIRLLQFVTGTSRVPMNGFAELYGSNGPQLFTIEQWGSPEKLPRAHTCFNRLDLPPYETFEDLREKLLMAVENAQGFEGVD

Target: T1, Neuregulin 1 (NRG1) (mouse (endogenous in mPFC tissue of C57BL/6J mice)) (UniProt Q6DR98)
T1 sequence: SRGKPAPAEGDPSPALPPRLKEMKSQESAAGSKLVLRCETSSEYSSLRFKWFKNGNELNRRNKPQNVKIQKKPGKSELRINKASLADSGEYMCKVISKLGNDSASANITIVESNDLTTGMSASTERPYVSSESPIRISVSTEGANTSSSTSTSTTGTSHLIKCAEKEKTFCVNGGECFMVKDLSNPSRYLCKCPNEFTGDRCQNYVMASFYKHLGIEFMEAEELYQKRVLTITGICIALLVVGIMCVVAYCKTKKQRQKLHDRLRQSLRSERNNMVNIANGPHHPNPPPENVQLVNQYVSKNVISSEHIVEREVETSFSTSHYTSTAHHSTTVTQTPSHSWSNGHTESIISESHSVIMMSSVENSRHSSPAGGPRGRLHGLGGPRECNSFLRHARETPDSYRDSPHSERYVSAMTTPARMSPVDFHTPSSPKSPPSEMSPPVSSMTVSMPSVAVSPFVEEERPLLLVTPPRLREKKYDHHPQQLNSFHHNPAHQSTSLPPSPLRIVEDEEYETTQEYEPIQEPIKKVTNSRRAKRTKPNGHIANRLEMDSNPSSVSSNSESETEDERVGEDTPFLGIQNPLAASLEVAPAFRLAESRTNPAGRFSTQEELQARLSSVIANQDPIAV
Experiment: co-IP; mPFC tissue homogenates of CTR, SS and RES mice after CSDS; pre-cleared with protein A + G agarose, incubated with specific antibodies and protein A + G agarose at 4 °C overnight, pellets washed three times with PBS, western blotting

binding: binds
Substance: Nedd4l (neural precursor cell expressed developmentally downregulated 4-like) (from UniProt Q8CFI0 1-1004) (enzyme)
